The source of these data is publication PMC12650272.

Chains of the proteins cited; added tags and fusions are not shown. Lines headed by an entry give the natural chain unless they say otherwise; changes in a name come on top.
UniProt P03372: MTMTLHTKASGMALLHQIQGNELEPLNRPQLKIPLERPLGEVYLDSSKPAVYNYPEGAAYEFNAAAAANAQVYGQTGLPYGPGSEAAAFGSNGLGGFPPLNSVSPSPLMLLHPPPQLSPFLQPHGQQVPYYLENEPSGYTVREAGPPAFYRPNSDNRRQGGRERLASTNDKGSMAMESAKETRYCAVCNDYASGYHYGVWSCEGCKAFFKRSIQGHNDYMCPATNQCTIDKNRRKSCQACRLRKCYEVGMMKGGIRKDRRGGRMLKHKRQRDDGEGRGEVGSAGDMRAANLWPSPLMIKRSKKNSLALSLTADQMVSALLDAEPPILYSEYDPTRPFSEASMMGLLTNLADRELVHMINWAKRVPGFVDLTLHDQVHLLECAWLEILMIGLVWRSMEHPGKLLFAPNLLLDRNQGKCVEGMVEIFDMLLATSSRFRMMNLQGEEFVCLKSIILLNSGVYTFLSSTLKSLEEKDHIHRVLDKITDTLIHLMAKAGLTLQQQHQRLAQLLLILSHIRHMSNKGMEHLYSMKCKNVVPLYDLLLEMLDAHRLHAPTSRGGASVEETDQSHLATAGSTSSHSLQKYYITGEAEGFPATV

No constants are given. Whether binding was seen depends on the method and setting. In cells and extracts the contact can be indirect. Some binding calls cover weakened binding; strength is not graded here. Sequences can lack the tags named with a protein.

This assay has as its target estrogen receptor α (ERα) (human (endogenous in ER-positive BRCA cells, MCF-7 / T47D)) (UniProt P03372). Kind of assay: co-IP; endogenous IP from ER-positive BRCA cells; lysis in RIPA buffer with protease inhibitors, antibody 12 h at 4 °C, protein A/G beads, Western blot; MG132 added in the IP experiments. (In general: A western blot detects proteins with antibodies after separation by electrophoresis.)

B1: STAM binding protein (STAMBP) (enzyme, UniProt O95630 1-424)
chain: MSDHGDVSLPPEDRVRALSQLGSAVEVNEDIPPRRYFRSGVEIIRMASIYSEEGNIEHAFILYNKYITLFIEKLPKHRDYKSAVIPEKKDTVKKLKEIAFPKAEELKAELLKRYTKEYTEYNEEKKKEAEELARNMAIQQELEKEKQRVAQQKQQQLEQEQFHAFEEMIRNQELEKERLKIVQEFGKVDPGLGGPLVPDLEKPSLDVFPTLTVSSIQPSDCHTTVRPAKPPVVDRSLKPGALSNSESIPTIDGLRHVVVPGRLCPQFLQLASANTARGVETCGILCGKLMRNEFTITHVLIPKQSAGSDYCNTENEEELFLIQDQQGLITLGWIHTHPTQTAFLSSVDLHTHCSYQMMLPESVAIVCSPKFQETGFFKLTDHGLEEISSCRQKGFHPHSKDPPLFCSCSHVTVVDRAVTITDLR
For B1, the binding result was “binds”.
